# Experimental data taken from the supplement of paper PMC7666118.
# Amino acid sequences for entries named in this document (tags omitted). A change or cut given only in a name is not applied to a line headed by its entry.
# UniProt Q9Y3D7: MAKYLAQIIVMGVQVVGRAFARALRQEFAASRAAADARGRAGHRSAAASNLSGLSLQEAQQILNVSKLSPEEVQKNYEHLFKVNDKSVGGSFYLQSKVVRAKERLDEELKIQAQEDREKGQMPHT
# UniProt Q9HD34: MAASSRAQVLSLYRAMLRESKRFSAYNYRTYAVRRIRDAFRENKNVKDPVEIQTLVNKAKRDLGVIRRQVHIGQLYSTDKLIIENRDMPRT
# UniProt Q9HCC0: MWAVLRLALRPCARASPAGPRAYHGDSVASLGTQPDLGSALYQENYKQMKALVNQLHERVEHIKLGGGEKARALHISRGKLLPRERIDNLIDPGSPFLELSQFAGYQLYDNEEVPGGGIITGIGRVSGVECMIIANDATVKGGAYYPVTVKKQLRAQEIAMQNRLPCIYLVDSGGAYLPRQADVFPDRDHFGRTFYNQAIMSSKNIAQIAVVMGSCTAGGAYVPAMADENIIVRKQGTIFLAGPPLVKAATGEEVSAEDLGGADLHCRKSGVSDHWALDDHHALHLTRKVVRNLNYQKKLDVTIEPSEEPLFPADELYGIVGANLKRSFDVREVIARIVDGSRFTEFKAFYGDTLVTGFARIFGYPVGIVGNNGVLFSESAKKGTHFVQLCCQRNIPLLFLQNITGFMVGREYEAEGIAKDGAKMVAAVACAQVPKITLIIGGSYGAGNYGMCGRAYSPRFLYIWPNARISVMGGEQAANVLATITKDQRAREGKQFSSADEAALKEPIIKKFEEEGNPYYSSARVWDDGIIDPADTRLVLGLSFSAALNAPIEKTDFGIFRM
# UniProt O14910: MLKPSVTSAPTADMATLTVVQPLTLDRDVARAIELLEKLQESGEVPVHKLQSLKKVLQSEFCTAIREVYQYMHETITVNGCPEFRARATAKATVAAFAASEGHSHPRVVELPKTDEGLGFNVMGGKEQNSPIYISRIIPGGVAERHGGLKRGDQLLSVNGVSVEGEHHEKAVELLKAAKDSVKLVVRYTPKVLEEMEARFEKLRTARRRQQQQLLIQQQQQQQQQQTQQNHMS
# UniProt Q96EK9: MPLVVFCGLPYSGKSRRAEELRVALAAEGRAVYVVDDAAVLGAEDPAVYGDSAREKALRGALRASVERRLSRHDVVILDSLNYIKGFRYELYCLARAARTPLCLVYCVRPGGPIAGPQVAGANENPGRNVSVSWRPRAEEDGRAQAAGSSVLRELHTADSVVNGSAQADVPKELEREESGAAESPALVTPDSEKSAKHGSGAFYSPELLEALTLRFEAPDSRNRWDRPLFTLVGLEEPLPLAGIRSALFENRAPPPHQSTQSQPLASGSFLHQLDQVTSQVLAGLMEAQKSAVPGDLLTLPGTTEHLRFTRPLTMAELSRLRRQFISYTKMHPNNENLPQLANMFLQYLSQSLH
# UniProt Q9UKM7: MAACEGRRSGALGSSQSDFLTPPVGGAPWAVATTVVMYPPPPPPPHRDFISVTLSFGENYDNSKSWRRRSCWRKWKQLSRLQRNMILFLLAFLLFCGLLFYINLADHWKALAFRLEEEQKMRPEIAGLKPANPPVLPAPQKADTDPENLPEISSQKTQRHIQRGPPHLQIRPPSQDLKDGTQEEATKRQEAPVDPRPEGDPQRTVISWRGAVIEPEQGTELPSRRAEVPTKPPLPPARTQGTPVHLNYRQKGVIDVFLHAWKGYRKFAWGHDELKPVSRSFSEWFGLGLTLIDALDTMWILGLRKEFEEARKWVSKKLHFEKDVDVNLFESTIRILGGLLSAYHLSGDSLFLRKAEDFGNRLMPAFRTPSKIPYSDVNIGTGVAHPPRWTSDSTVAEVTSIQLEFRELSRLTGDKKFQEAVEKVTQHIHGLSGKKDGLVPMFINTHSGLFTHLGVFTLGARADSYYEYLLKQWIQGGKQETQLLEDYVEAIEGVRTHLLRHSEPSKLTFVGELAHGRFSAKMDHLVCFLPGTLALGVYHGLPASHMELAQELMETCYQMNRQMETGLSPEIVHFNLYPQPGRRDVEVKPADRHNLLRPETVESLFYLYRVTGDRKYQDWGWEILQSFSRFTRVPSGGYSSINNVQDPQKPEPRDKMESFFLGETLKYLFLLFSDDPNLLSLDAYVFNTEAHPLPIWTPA
# UniProt P53671: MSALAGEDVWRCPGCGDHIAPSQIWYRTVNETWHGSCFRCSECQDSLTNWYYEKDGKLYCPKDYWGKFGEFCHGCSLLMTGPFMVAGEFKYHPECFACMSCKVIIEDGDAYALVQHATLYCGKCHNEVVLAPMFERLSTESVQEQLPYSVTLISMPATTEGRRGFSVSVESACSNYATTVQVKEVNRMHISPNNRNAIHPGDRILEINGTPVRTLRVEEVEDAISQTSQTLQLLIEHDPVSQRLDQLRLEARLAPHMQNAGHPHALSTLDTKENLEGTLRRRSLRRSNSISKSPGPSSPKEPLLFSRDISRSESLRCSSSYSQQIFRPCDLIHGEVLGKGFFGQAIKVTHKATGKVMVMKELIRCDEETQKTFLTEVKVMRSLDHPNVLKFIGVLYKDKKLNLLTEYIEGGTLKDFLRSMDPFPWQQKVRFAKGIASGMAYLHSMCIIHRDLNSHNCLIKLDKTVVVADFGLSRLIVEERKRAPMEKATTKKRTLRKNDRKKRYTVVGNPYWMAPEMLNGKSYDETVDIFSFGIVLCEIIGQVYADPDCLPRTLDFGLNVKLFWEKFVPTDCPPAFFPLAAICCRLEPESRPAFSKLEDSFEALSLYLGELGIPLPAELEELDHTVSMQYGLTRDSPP
# UniProt Q99698: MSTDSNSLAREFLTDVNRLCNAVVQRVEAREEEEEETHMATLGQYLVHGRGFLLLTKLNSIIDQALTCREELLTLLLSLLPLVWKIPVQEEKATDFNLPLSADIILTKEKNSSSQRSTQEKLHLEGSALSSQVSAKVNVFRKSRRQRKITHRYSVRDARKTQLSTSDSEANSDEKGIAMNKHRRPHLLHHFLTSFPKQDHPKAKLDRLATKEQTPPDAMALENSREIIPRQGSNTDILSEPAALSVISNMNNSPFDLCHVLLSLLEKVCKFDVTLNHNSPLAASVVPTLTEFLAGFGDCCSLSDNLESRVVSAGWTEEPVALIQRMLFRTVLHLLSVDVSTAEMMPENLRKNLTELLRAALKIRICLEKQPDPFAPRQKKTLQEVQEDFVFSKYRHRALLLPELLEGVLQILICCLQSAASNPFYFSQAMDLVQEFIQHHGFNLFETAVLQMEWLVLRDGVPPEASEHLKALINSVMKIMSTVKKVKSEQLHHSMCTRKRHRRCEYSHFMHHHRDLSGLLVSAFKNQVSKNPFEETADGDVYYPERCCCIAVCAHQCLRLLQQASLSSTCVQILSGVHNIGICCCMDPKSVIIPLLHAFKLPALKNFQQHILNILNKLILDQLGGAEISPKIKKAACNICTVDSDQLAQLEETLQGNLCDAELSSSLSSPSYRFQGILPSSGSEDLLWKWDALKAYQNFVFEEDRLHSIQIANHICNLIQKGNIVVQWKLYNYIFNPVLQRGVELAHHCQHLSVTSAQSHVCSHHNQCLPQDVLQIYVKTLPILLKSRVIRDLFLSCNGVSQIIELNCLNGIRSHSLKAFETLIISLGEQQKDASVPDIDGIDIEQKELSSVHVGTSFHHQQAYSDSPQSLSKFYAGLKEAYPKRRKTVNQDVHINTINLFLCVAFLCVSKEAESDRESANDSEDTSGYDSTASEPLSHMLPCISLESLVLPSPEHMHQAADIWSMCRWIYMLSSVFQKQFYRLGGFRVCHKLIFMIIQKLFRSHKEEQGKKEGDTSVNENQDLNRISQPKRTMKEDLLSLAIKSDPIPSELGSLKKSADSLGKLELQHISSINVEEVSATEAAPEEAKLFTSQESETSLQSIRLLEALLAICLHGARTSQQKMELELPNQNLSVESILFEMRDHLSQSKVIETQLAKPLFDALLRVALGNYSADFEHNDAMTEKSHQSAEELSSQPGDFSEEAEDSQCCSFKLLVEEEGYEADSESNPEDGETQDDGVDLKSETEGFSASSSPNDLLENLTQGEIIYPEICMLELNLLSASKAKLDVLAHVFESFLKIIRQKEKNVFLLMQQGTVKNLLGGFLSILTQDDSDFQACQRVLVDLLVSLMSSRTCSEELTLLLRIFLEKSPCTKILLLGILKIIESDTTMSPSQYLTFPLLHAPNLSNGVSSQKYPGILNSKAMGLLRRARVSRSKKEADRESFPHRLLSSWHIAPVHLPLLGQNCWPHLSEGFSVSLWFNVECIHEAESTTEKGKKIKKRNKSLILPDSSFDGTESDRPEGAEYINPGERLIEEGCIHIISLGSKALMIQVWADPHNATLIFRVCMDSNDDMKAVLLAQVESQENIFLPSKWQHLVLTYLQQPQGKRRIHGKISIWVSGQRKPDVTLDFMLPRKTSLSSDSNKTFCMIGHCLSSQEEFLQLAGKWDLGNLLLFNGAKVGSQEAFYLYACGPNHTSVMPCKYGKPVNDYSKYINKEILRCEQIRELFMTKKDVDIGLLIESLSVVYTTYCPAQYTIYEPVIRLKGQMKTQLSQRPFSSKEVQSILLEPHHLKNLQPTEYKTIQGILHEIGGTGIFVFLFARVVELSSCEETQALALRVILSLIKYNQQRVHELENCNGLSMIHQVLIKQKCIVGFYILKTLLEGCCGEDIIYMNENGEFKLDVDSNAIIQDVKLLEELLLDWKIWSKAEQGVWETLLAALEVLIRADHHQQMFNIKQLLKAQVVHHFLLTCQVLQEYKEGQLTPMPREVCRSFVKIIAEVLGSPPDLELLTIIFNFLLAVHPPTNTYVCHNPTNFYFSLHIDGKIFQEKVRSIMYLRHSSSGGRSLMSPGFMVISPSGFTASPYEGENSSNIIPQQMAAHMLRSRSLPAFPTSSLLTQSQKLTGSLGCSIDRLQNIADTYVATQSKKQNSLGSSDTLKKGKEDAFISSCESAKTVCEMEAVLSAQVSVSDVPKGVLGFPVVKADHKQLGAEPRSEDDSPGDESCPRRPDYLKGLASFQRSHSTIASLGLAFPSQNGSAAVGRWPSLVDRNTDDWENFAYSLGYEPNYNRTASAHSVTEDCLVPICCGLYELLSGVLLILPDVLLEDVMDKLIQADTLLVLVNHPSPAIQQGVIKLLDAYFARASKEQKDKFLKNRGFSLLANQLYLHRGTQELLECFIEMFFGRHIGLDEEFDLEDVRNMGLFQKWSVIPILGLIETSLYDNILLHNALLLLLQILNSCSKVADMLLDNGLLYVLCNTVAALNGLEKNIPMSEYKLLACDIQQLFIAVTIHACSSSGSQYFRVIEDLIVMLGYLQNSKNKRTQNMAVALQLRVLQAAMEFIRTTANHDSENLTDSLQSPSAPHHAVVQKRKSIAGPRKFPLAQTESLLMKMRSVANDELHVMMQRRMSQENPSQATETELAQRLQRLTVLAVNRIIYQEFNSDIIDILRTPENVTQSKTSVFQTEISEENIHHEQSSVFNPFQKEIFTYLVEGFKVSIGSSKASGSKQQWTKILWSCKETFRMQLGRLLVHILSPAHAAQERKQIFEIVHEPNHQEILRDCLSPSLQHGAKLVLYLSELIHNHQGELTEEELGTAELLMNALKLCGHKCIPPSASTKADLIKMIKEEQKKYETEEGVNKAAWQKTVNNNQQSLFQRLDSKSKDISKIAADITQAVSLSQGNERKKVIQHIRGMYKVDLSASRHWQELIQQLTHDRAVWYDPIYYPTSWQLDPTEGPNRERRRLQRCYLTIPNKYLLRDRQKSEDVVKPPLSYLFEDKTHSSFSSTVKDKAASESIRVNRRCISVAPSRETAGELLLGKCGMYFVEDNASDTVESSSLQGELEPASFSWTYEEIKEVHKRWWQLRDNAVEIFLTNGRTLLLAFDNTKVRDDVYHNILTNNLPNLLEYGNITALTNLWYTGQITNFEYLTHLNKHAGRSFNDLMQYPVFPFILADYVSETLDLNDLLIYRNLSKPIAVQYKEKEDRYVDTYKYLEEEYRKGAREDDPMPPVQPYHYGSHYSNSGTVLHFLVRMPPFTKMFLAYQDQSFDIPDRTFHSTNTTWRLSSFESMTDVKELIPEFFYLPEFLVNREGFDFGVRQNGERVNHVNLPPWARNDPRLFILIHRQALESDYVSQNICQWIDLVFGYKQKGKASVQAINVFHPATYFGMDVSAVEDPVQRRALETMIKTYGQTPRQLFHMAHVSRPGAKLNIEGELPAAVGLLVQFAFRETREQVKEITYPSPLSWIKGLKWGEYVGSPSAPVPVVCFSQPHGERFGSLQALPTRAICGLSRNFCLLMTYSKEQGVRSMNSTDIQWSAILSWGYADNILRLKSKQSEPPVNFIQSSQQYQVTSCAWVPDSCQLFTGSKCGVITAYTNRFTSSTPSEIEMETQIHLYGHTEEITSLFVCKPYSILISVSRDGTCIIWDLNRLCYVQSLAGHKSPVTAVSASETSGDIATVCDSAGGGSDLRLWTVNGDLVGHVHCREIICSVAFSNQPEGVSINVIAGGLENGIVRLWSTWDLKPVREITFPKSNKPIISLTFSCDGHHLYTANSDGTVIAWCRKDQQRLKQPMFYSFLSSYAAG
# The list shows a part of the results.
# Compound: COc1ccc(Cn2ccc3cc(C)c(C(=O)NO)cc32)cc1
# Experiment: dose-dependent thermal stabilisation call (2D-TPP, DLPTP, 10% FDR) (binary (1 = stabilised)); higher = stabilised by the compound
# Details: system: HL-60 intact cells; concentration range 0.04-10 µM
# Experimental: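 2D thermal proteome profiling in intact HL-60 cells treated with BRD-3811 (0, 0.04, 0.29, 2, 10 uM) for 90 min at 37 C, then heated 3 min at one of 12 temperatures (42-63.9 C). Soluble protein was quantified by TMT10 MS. The value is the DLPTP call of the paper: dose-dependent thermal stabilisation over all temperatures at 10% FDR (F-test of a dose-response against a flat model); one experiment, one call per tested protein.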
row,Target,dose-dependent thermal stabilisation call
1,LPGAT1 (UniProt Q92604),inactive: 0
2,MAFG (UniProt O15525),inactive: 0
3,MACC1 (UniProt Q6ZN28),inactive: 0
4,MBIP (UniProt Q9NS73),inactive: 0
5,MAML1 (UniProt Q92585),inactive: 0
6,MAGMAS (UniProt Q9Y3D7),inactive: 0
7,LYRM4 (UniProt Q9HD34),inactive: 0
8,LMF1 (UniProt Q96S06),inactive: 0
9,KRI1 (UniProt Q8N9T8),inactive: 0
10,LOC388474,inactive: 0
11,MAP3K5 (UniProt Q99683),inactive: 0
12,MCCC2 (UniProt Q9HCC0),inactive: 0
13,MARCKS (UniProt P29966),inactive: 0
14,LIN7A (UniProt O14910),inactive: 0
15,KTI12 (UniProt Q96EK9),inactive: 0
16,LAPTM5 (UniProt Q13571),inactive: 0
17,LOC729148,inactive: 0
18,MAD2L1 (UniProt Q13257),inactive: 0

# Looked up above:
# dose-dependent thermal stabilisation call, MAGMAS (UniProt Q9Y3D7) is entered as inactive: 0
# dose-dependent thermal stabilisation call, MAFG (UniProt O15525) is entered as inactive: 0

# (continued)

row,Target,dose-dependent thermal stabilisation call
1,LOC100129759,inactive: 0
2,LOC728944,inactive: 0
3,LMBRD2 (UniProt Q68DH5),inactive: 0
4,LHPP (UniProt Q9H008),inactive: 0
5,LOC27320,inactive: 0
6,LOC653156,inactive: 0
7,MAEA (UniProt Q7L5Y9),inactive: 0
8,LRSAM1 (UniProt Q6UWE0),inactive: 0
9,LIMD1 (UniProt Q9UGP4),inactive: 0
10,MAN1B1 (UniProt Q9UKM7),inactive: 0
11,LRIG2 (UniProt O94898),inactive: 0
12,LMF2 (UniProt Q9BU23),inactive: 0
13,MAGED2 (UniProt Q9UNF1),inactive: 0
14,MBOAT1 (UniProt Q6ZNC8),inactive: 0
15,MAP3K2 (UniProt Q9Y2U5),inactive: 0
16,LIMK2 (UniProt P53671),inactive: 0
17,LYST (UniProt Q99698),inactive: 0
18,LRMP (UniProt Q12912),inactive: 0
